These results are taken from publication PMC7861564.

Assay [1] concerns the target T1, Agrobacterium tumefaciens single-stranded DNA binding protein (SSB) (Agrobacterium tumefaciens strain C58) (UniProt Q8UF87).
T1 sequence: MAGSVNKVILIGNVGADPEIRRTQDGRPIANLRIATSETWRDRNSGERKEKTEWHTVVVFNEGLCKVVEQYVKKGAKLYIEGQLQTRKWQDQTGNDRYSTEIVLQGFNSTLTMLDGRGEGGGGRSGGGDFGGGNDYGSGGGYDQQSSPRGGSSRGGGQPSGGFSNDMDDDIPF
Kind of assay: native gel or EMSA; both purified.

Assay [2] has as its target T1, Agrobacterium tumefaciens single-stranded DNA binding protein (SSB) (Agrobacterium tumefaciens strain C58). Kind of assay: cross-linking; glutaraldehyde 0.0001%, TelA with AtSSB or AtSSBΔC7, 25 mM HEPES pH 7.6, 0.1 mM EDTA, 100 mM or 200 mM NaCl, 30°C 15 min then 5 min with crosslinker; SDS-PAGE and anti-His western blot; both purified. On the technique in general: Immunoblotting shows a protein as a band on a membrane.

No constants are given. Whether binding was seen depends on the method and setting.

B1: TelA, telomere resolvase from Agrobacterium tumefaciens strain C58 (enzyme, UniProt Q7CWV1 1-442)
chain: MLAAKRKTKTPVLVERIDQFVGQIKEAMKSDDASRNRKIRDLWDAEVRYHFDNGRTEKTLELYIMKYRNALKAEFGPKSTPLAICNMKKLRERLNTYIARGDYPKTGVATSIVEKIERAEFNTAGRKPTVLLRIADFIAAMNGMDAKQDMQALWDAEIAIMNGRAQTTIISYITKYRNAIREAFGDDHPMLKIATGDAAMYDEARRVKMEKIANKHGALITFENYRQVLKICEDCLKSSDPLMIGIGLIGMTGRRPYEVFTQAEFSPAPYGKGVSKWSILFNGQAKTKQGEGTKFGITYEIPVLTRSETVLAAYKRLRESGQGKLWHGMSIDDFSSETRLLLRDTVFNLFEDVWPKEELPKPYGLRHLYAEVAYHNFAPPHVTKNSYFAAILGHNNNDLETSLSYMTYTLPEDRDNALARLKRTNERTLQQMATIAPVSRKG
For B1, the binding result in assay [1] and in assay [2] was “no binding” throughout.
